Results are given in words; binding and its absence hold for the method and conditions named. Binding seen in cells or lysates may run through a third protein. Binding can be weak; no strength is given. Blank lines part the entries; values can stand above or below the substance they belong to.
Key:
Assay in all cases: cross-linking; in cellulo cross-linking with mass spectrometry (XL-MS): three million PEO-4, SKOV-3 or T1074 cells in 200 µL DPBS, 2 mM DSSO, 37 °C, 1 h; subcellular fractionation, FASP digestion (trypsin/Lys-C, chymotrypsin), nanoLC-MS/MS, XlinkX in Proteome Discoverer
[1] = target: T1, CNNM3 (human (endogenous in SKOV-3)) (UniProt Q8NE01)
T1 sequence: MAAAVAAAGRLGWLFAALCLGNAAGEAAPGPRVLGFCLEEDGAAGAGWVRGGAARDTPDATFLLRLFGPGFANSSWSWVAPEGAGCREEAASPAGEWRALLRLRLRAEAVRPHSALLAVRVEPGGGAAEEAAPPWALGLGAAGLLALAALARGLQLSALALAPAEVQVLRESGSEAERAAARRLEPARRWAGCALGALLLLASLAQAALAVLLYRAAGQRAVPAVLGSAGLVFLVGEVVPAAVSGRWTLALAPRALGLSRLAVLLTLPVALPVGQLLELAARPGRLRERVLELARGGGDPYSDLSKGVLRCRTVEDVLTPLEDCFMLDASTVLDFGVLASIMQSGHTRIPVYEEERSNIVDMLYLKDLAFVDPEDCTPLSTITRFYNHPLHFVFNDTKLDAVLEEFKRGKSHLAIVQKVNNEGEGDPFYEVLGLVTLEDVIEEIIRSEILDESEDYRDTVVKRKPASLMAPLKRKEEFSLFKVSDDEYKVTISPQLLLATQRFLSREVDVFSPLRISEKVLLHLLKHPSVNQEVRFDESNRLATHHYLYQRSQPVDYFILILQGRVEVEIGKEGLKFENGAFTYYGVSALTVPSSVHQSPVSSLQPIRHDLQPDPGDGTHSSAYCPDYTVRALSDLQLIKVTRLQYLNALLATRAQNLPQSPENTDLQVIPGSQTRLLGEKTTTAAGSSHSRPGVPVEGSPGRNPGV

[2] = target: T2, POLD3 (human (endogenous in T1074 and PEO-4)) (UniProt Q15054)
T2 sequence: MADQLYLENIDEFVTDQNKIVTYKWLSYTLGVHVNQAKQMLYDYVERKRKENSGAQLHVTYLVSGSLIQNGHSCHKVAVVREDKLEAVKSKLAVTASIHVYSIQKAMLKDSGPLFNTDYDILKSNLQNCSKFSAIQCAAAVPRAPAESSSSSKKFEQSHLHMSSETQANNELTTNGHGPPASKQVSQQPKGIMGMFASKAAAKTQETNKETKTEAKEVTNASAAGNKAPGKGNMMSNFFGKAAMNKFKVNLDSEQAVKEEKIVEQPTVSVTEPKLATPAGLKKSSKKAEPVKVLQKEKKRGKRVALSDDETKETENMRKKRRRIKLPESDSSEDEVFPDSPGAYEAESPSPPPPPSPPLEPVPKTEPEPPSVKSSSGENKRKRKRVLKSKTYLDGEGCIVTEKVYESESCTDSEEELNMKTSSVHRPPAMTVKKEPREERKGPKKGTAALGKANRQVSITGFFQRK

[3] = target: T3, TMEM260 (human (endogenous in T1074)) (UniProt Q9NX78)
T3 sequence: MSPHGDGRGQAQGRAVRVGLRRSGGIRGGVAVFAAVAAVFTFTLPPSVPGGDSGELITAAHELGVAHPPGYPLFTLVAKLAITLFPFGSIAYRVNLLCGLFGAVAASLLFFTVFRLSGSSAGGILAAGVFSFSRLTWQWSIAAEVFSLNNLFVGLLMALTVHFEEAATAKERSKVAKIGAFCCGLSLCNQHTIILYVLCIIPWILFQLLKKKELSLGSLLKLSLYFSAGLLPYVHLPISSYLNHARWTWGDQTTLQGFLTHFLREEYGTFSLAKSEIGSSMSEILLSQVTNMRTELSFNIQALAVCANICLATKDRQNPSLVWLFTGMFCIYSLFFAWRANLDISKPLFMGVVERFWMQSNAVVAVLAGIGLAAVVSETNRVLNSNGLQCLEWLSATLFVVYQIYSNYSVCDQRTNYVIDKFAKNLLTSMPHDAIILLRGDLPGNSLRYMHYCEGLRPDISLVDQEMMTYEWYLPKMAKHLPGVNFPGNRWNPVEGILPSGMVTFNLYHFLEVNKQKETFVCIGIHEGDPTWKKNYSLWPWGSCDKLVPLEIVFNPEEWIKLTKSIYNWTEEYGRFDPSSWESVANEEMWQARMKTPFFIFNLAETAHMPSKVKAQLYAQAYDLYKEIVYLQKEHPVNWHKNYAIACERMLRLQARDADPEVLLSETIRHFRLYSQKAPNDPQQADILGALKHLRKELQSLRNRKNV

- binding [1]: binds
Substance: AltProt IP_118499 (human (endogenous in SKOV-3))

- binding [2]: binds
Substance: AltProt IP_183088 (human (endogenous in T1074 and PEO-4))

- binding [3]: binds
Substance: AltProt IP_292259 (human (endogenous in T1074))
